The source of these data is the supplement of paper PMC8256030.

Molecules are shown by their SMILES. “And” between values parts separate entries of the source, which are not always exact repeats. Identical values can stand only once. Some of the results follow. Repeats in this data set agree poorly, so a single value says little.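 HEK293T cells were given each compound shortly before transfection with a reporter in which red mCherry is followed by the SARS-CoV-2 frameshift element and then GFP in the −1 frame, so GFP appears only after frameshifting.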

The assay relates to HEK293T. The assay can be described thus: percent viability (nuclei count) relative to control; higher = more viable cells. The conditions noted are these: 10 µM; 24 h.
In the case of `NS(=O)(=O)c1cc2c(cc1Cl)N=CNS2(=O)=O`, the percent viability came to 171%.
As to `CC1(C)S[C@@H]2[C@H](NC(=O)[C@H](N)c3ccccc3)C(=O)N2[C@H]1C(=O)O`, the percent viability was 192%.
The figure for `CN(CCOc1ccc(CC2SC(=O)NC2=O)cc1)c1ccccn1` (stereo not given) [Rosiglitazone] is 230%; for `CC/C(=C(\c1ccc(O)cc1)c1ccc(OCCN(C)C)cc1)c1ccccc1` [afimoxifene] it is 222%; for `CCCCc1nc(Cl)c(CO)n1Cc1ccc(-c2ccccc2-c2nnn[nH]2)cc1` [losartan] it is 211%.
The result for `C=CCN1CCCC1CNC(=O)c1cc2nn[nH]c2cc1OC` (stereo not given) [alizapride] reads 197%; that for `C[C@@H]1NC(=O)[C@@H](N)CNC(=O)[C@H](C2CCNC(=N)N2)NC(=O)/C(=C/NC(N)=O)NC(=O)[C@H](CNC(=O)CC(N)CCCN)NC1=O.N=C1NCC[C@H]([C@@H]2NC(=O)/C(=C/NC(N)=O)NC(=O)[C@H](CNC(=O)C[C@@H](N)CCCN)NC(=O)[C@H](CO)NC(=O)[C@@H](N)CNC2=O)N1` [Capreomycin], 35.5%; that for `COc1ccc2cc([C@H](C)C(=O)O)ccc2c1`, 300%.
On to `S=C1NCCC(COc2ccccc2)O1` (stereo not given) [tifemoxone], for which the percent viability came to 232%.
The figure for `CC(=O)N(CC(O)CO)c1c(I)c(C(=O)NCC(O)CO)c(I)c(C(=O)NCC(O)CO)c1I` (stereo not given) [iohexol] is 186%; for `CC12CC3CC(C)(C1)CC(N)(C3)C2` [memantine] it is 129% and 219%; for `CC1(CN2CCC(n3c(=O)[nH]c4ccccc43)CC2)OCc2ccccc2-n2cccc21` (stereo not given) [zaldaride] it is 162%.
As to `CCN(CC)C(=O)C1CN2CCc3cc(OC)c(OC)cc3C2CC1OC(C)=O` (stereo not given) [benzquinamide], the percent viability was determined as 196%.
For the compound `O=C1Cc2cc(CCN3CCN(c4nsc5ccccc45)CC3)c(Cl)cc2N1`, the percent viability came out at 201%.
The figure for `Oc1c(Cl)cc(Cl)cc1Sc1cc(Cl)cc(Cl)c1O` is 315%; for `C[N+](C)(C)CCOC(N)=O` [carbachol] it is 75.8% and 208%; for `O=C(O)Cc1cscc1Nc1c(Cl)cccc1Cl` [eltenac] it is 66.6%.
The result for `CCOC(=O)C1=C[C@]2(CC)CCCN3CCc4c(n1c1ccccc41)[C@@H]32` reads 114%; that for `NCCC[C@H](N)C(=O)O` [ornithine], 142% and 263% and 305%; that for `N#Cc1ccc2c(c1)N(CCCN1CCC(O)CC1)c1ccccc1S2` [periciazine], 52.9%.
The figure for `N=C(N)n1cccn1` [praxadine] is 87%; for `COc1cc([C@@H]2c3cc4c(cc3[C@@H](O[C@@H]3O[C@@H]5CO[C@@H](c6cccs6)O[C@H]5[C@H](O)[C@H]3O)[C@H]3COC(=O)[C@H]23)OCO4)cc(OC)c1O` [teniposide] it is 53.2%.
`NS(=O)(=O)c1ccc(NCS(=O)(=O)O)cc1` [mesulfamide]: the percent viability stood at 165%.
Regarding `C/C=C/C/C=C/CCC(=O)[C@H]1O[C@H]1C(N)=O` [Helicocerin], the percent viability was 323%.
For the compound `CCc1cccc2cc(C(O)CNC(C)(C)C)oc12` (stereo not given) [bufuralol], the percent viability worked out at 76.6%.
The result for `CS(=O)(=O)c1ccc([C@@H](O)[C@@H](CF)NC(=O)C(Cl)Cl)cc1` reads 255%; that for `O=C(OCCN1CCN(c2cccc(C(F)(F)F)c2)CC1)c1ccccc1Nc1ccnc2cc(C(F)(F)F)ccc12` [antrafenine], 292%.
As to `C=CCOC(Cn1ccnc1)c1ccc(Cl)cc1Cl` (stereo not given) [enilconazole], the percent viability came out at 94.4%.
The result for `O=c1[nH]c2ccccc2n1CCCN1CCN(C(c2ccccc2)c2ccccc2)CC1` [oxatomide] reads 265%; that for `N[C@@H]1[C@H]2CN(c3nc4c(cc3F)c(=O)c(C(=O)O)cn4-c3ccc(F)cc3F)C[C@@H]12` [trovafloxacin], 220%; that for `CN(C)CC[C@@H](c1ccc(Cl)cc1)c1ccccn1` [dexchlorpheniramine], 144%.
`C=N[C@@H](C(=O)N[C@@H]1C(=O)N2[C@@H]1SC(C)(C)[C@@H]2C(=O)O)c1ccccc1`: the percent viability was found to be 103%.
For the compound `CCCSS/C(CCO)=C(/C)N(C=O)Cc1cnc(C)nc1N` [prosultiamine], the percent viability came to 206%.
`C[C@]12CCC3=C4CCC(=O)C=C4CC[C@H]3[C@@H]1CC[C@@]2(O)CC#N` [dienogest]: the percent viability amounted to 160%.
`CCN1CCN(c2cc3c(cc2F)c(=O)c(C(=O)O)cn3C2CC2)CC1` [enrofloxacin]: the percent viability was 144% and 152%.
Take `CCN(CC)CCNC(=O)c1ccc(NS(C)(=O)=O)cc1` [sematilide]: the percent viability came to 46.7%.
`Cc1[nH]cnc1CN1CCc2c(c3ccccc3n2C)C1=O` [alosetron]: the percent viability turned out to be 29.6%.
For `NC(N)=Nc1nc(CSCC/C(N)=N/S(N)(=O)=O)cs1`, the percent viability was 313%.
With `CC1OC2(CS1)CN1CCC2CC1` (stereo not given) [Evoxac], the percent viability was found to be 208%.
The figure for `NC(Cc1c[nH]c2ccc(O)cc12)C(=O)O` (stereo not given) is 302%.
